Test results published in article PMC11633528.
Results are given in words; binding and its absence hold for the method and conditions named. In cells and extracts the contact can be indirect. A yes stands for co-enrichment or nearness to the bait. Other partners may have been found. Sequences can lack the tags named with a protein.

The chains behind the UniProt entries cited, without tags or fusion partners.
UniProt P67809: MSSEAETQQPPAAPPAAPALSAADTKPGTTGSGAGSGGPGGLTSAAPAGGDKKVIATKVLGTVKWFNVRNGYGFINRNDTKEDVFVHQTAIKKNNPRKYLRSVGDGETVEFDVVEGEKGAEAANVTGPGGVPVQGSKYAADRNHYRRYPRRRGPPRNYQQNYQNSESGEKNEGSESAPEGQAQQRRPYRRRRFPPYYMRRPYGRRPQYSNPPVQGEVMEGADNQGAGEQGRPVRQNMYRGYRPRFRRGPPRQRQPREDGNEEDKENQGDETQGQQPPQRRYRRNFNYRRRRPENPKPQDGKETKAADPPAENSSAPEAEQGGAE
UniProt Q15717: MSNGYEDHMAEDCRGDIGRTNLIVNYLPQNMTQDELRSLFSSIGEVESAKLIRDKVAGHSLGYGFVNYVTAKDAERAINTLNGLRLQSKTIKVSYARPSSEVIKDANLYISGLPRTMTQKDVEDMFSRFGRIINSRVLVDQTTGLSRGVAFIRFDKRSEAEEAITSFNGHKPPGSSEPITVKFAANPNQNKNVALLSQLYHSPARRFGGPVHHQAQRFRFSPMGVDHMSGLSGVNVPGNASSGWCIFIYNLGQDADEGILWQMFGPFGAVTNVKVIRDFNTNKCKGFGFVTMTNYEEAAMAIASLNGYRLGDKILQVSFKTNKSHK

Molecular target: T1, HCP5‐132aa‐Flag (microprotein encoded by ORF15 of lncRNA HCP5), stably expressed in GC cells (human) (UniProt Q6MZN7)
T1 sequence: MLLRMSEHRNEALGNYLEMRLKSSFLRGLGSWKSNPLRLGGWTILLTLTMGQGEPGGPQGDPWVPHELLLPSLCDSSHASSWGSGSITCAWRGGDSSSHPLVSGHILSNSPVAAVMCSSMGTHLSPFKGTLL
Assay: affinity purification with mass spectrometry; anti‐Flag immunoprecipitation from GC cells with stable HCP5‐132aa‐Flag (control EGFP‐Flag), SDS‐PAGE, silver staining, LC‐MS/MS

Y‐box binding protein 1 (YBX1), endogenous in GC cells (from UniProt P67809 1-324)
binding: binds

ELAVL1, endogenous in GC cells (from UniProt Q15717 1-326)
binding: binds
